Source: publication PMC12715526
Results are given in words; binding and its absence hold for the method and conditions named. For some assays here: Binding can be weak; no strength is given. Sequences can lack the tags named with a protein.

What was measured:
[1] = target: T1, first motif "FPGHSNCP" of GhAIL6 in the BD vector (Gossypium hirsutum); experiment: two-hybrid; GAL4 system (Clontech), Y2HGold yeast; GhAIL6 motif in BD (pGBKT7), GhTPL1 in AD (pGADT7); growth on SD/-Leu-Trp and SD/-Leu-Trp-His-Ade
T1 sequence: FPGHSNCP

[2] = target: T2, second motif "GSLSLGVN" of GhAIL6 in the BD vector (Gossypium hirsutum); experiment: as above
T2 sequence: GSLSLGVN

For “GhTPL1 in the AD vector (pGADT7) (Gossypium hirsutum)”, the binding [1] was “no binding” and the binding [2] was “binds”.
